The supplement of paper PMC10849652
This is one part of the list.

Sequences of proteins named here, by UniProt entry; tags and fusion partners are left off. A change or cut given only in a name is not applied to a line headed by its entry.
UniProt Q7Z3V4: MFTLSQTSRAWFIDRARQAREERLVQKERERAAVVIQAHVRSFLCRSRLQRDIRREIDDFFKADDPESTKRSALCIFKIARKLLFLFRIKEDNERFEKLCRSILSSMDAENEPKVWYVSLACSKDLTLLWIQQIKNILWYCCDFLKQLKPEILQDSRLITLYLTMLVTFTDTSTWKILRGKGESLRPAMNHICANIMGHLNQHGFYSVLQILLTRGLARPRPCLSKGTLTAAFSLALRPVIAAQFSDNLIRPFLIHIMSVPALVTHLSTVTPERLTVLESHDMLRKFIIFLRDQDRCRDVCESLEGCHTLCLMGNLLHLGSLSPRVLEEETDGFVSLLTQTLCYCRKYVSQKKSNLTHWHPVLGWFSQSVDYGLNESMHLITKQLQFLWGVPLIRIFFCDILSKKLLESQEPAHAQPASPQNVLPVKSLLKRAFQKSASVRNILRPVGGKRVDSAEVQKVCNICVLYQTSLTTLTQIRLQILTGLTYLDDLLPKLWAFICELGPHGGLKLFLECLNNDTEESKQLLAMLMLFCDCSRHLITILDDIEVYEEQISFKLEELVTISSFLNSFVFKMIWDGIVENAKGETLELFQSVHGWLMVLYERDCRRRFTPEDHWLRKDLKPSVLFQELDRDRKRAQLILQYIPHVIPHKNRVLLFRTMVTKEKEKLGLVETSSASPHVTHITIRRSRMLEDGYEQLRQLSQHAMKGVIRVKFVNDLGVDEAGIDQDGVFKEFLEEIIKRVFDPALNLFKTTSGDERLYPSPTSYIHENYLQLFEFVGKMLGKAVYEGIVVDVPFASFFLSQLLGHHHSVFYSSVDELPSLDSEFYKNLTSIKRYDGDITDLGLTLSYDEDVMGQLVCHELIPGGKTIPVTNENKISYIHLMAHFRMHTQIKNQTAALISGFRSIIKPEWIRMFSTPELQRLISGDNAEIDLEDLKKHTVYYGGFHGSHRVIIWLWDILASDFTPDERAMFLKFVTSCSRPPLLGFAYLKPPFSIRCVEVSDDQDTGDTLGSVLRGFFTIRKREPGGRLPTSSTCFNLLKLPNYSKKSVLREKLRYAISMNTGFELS
UniProt Q9H6E5: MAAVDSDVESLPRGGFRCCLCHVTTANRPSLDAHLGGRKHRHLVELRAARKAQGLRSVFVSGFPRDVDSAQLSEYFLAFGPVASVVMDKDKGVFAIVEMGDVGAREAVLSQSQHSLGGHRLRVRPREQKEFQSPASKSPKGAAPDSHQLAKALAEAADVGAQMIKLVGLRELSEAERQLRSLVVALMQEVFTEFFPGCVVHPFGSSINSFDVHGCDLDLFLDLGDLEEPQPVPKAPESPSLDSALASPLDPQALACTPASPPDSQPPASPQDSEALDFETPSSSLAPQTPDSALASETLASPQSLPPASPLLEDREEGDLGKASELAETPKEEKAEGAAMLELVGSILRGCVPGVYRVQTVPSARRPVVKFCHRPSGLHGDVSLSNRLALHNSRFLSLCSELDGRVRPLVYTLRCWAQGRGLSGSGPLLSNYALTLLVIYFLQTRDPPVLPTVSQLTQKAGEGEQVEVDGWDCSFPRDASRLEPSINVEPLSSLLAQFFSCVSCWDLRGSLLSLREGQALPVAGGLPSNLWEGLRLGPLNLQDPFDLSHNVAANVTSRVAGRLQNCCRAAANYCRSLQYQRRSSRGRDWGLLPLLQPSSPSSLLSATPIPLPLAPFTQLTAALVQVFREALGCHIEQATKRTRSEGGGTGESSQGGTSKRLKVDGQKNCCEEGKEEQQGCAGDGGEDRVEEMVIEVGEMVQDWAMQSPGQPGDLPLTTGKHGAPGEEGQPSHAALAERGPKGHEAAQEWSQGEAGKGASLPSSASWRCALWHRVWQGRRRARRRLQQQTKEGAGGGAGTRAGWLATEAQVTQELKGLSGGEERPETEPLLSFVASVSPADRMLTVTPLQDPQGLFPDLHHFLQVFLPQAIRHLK
UniProt P62253: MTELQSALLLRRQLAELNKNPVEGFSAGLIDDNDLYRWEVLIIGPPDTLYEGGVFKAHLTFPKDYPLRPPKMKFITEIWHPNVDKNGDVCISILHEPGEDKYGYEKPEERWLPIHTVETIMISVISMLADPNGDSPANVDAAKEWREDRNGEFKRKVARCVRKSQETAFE
UniProt Q969M7: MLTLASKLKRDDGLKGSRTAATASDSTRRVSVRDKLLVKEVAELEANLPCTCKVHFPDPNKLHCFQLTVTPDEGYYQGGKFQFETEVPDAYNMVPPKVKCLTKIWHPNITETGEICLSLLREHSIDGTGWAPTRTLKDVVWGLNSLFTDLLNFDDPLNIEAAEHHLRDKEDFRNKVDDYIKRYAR
UniProt P10599: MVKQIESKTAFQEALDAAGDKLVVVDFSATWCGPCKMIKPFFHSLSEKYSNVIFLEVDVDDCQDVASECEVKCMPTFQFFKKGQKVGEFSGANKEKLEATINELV
UniProt Q86VQ6, whole entry, looked up: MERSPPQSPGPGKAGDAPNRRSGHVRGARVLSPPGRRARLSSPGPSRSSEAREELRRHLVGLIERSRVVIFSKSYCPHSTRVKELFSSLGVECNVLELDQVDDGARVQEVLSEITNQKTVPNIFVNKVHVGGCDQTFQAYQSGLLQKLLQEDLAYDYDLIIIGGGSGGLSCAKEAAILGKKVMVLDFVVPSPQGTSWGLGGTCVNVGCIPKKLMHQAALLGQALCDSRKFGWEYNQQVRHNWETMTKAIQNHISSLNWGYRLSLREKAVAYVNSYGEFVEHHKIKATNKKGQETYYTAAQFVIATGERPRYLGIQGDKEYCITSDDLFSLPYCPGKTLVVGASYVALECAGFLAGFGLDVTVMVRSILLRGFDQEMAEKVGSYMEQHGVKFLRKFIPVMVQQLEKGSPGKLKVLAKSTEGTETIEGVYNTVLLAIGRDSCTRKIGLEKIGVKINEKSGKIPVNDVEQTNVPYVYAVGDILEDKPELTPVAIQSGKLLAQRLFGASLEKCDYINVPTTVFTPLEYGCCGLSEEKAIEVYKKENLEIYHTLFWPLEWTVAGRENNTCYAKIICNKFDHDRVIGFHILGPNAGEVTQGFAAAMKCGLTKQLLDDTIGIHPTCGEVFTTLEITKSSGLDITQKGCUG
UniProt Q96RT8, whole entry, looked up: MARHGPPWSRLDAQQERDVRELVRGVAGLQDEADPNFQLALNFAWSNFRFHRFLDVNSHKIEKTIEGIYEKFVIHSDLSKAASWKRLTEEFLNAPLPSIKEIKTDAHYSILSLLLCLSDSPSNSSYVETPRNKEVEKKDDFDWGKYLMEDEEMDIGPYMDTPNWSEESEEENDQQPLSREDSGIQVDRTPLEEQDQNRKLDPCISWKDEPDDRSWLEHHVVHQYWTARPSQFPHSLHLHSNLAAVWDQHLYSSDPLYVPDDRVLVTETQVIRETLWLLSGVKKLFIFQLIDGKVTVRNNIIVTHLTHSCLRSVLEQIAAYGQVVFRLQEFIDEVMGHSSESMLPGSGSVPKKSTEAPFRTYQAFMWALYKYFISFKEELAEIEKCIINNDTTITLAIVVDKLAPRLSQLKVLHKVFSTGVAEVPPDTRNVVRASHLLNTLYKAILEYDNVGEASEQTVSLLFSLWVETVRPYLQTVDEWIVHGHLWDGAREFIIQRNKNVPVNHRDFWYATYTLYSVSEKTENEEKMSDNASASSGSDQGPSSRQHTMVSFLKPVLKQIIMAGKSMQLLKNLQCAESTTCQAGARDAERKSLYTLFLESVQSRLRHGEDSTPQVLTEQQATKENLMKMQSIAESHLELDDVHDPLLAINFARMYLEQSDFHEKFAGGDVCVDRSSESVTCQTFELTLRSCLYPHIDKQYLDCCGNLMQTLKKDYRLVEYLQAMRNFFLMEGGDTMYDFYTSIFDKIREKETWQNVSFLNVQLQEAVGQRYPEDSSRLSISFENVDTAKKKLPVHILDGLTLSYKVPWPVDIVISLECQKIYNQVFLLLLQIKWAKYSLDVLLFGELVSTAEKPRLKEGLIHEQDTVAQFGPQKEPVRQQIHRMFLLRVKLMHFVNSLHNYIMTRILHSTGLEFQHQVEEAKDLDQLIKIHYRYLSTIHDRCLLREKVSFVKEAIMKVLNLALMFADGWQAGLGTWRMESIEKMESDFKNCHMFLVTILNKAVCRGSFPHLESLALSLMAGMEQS
UniProt P61077: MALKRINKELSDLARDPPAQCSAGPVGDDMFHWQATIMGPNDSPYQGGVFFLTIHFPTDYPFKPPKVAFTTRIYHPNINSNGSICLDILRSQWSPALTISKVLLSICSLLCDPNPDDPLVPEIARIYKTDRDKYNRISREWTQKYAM
UniProt P68543: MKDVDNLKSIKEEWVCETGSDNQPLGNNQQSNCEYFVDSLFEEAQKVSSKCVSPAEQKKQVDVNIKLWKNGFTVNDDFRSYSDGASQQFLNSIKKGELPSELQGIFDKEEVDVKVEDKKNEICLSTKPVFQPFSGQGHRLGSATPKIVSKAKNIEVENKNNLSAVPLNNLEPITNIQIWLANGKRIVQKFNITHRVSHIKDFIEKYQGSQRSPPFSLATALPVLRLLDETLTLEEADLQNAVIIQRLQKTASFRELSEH
UniProt Q8N2K1: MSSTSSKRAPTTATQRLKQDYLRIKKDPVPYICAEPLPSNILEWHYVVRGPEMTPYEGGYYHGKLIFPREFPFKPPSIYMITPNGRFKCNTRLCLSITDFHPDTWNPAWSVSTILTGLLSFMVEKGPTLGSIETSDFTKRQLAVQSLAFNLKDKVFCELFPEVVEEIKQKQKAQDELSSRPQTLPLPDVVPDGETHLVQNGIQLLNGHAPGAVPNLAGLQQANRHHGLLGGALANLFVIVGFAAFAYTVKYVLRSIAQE
UniProt Q96RR1: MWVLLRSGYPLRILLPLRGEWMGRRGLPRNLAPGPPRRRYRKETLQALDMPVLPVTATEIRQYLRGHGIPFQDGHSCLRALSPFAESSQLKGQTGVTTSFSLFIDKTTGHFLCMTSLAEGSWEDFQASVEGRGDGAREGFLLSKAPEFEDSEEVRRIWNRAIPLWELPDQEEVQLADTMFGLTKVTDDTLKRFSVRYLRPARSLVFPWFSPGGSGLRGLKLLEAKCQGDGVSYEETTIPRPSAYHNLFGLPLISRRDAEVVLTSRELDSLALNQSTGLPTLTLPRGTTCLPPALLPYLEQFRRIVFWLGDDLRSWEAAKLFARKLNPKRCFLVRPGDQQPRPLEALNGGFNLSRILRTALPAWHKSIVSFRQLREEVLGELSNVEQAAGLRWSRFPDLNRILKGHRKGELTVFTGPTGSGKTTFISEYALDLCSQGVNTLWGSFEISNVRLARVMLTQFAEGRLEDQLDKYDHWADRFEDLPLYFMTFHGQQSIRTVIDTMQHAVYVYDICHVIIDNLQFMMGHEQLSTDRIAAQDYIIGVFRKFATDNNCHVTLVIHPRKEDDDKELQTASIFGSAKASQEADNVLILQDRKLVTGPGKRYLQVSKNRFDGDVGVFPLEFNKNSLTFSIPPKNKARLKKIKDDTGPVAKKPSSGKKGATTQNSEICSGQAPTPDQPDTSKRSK
UniProt A6NNZ2, whole entry, looked up: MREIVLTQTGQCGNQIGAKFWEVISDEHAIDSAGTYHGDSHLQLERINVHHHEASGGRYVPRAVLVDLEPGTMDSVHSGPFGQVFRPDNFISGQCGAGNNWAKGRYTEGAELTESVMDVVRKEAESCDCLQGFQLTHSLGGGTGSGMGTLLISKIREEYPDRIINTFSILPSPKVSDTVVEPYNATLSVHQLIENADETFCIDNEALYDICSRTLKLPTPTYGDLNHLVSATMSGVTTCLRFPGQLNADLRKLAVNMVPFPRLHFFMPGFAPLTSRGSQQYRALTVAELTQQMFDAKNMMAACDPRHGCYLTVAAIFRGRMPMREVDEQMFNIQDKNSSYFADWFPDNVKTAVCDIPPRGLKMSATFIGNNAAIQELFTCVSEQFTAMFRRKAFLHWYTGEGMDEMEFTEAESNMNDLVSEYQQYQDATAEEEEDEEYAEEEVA
UniProt Q96LJ8: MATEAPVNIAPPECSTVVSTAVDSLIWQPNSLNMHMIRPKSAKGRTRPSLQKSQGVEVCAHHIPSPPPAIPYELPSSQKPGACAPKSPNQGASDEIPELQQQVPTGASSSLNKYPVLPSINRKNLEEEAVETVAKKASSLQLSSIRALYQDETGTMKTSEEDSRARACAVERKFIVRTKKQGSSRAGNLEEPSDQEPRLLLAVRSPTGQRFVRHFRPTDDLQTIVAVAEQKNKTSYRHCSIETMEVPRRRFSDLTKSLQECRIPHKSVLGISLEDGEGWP
UniProt O75896: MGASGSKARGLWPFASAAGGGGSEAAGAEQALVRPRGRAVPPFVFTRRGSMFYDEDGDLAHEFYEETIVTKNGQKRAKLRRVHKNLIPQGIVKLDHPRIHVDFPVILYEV
UniProt Q14CS0: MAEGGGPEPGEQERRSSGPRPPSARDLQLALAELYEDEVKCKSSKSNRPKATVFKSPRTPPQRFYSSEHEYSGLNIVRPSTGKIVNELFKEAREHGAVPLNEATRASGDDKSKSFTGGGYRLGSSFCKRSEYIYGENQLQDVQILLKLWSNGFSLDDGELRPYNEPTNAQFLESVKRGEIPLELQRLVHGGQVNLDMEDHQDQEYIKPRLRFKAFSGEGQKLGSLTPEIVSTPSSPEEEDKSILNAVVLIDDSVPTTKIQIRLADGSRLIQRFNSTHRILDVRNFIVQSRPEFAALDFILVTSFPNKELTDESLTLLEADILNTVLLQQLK

How the values were obtained:
Assay in all cases: log2 fold change, soluble protein after heating vs DMSO (PISA); higher = thermal stabilisation; K562 lysate, 10 uM; active = over 0.2 and 3.5 SD of the protein, either way, in both replicates (recomputed)
[1] = compound: C=CC(=O)N1CCC[C@@H](n2nc(-c3ccc(Oc4ccccc4)cc3)c3c(N)ncnc32)C1 [ibrutinib]
Procedure, shortened: (§1)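 A 30 min treatment with 10 μM compound was applied to crude K562 extract at 1 mg/mL protein in PBS pH 7.4 with 1 mM MgCl2. Heating for 3 min spanned 48°C-58°C, after which aliquots were pooled, adjusted to 0.5% NP-40 at 4°C and spun at 21,000xg for 90 min. TMTpro 16plex LC-MS/MS of the supernatant, with channel sums equalised, gave values recorded as log-two fold change in thermal stability against solvent controls, from duplicates.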

[2] = compound: CC(=O)c1cnc2ccc(-c3cc(Cl)c(O)c(Cl)c3)nc2c1N[C@H]1CC[C@H](CN(C)C)CC1
Procedure, shortened: as §1

[3] = compound: CC(C)(C)Cn1c(N)nc2ccc(-c3[nH]c(C(C)(C)C)nc3-c3ccc(F)cc3)nc21 [ralimetinib]
Procedure, shortened: as §1

[4] = compound: CC(C)(O)CC(=O)NCCn1ccc2ncnc(Nc3ccc(Oc4cccc(C(F)(F)F)c4)c(Cl)c3)c21
Procedure, shortened: as §1

[5] = compound: CC(C)C1=C2N=C(C=C(N2N=C1)NCC3=CC=CC=C3)NCCCCCCN
Procedure, shortened: as §1

[6] = compound: CC1=C(C(CC(=O)N1)C2=CC=C(C=C2)C(F)(F)F)C(=O)NC3=C(C=C4C(=C3)C=NN4)F
Procedure, shortened: as §1

[7] = compound: CC1=C(C2=C(C=C1)C(=O)C3=CC=CC=C3N2CCCN)C
Procedure, shortened: as §1

[8] = compound: CC1=C(C=C(C=C1)NC(=O)C2=CC(=CC=C2)C(C)(C)C#N)NC3=CC4=C(C=C3)N=CN(C4=O)C
Procedure, shortened: as §1

[9] = compound: CC1=C(C=C(C=C1)NC(=O)C2=CC(=CC=C2)N(C)C)NC(=O)C3=CC=C(C=C3)O
Procedure, shortened: as §1

[10] = compound: CC1=CC=C(C=C1)SC2=C3C=C(SC3=CN=C2)C(=O)N
Procedure, shortened: as §1

[11] = compound: CCCS(=O)(=O)Nc1ccc(F)c(C(=O)c2c[nH]c3ncc(-c4ccc(Cl)cc4)cc23)c1F [vemurafenib]
Procedure, shortened: as §1

[12] = compound: CCCS(=O)(=O)Nc1ccc(F)c(C(=O)c2c[nH]c3ncc(Cl)cc23)c1F
Procedure, shortened: as §1

[13] = compound: CCN(CCCOc1ccc2c(Nc3cc(CC(=O)Nc4cccc(F)c4)[nH]n3)ncnc2c1)CCOP(=O)(O)O [barasertib]
Procedure, shortened: as §1

[14] = compound: CC[C@@H]1C(=O)N(C)c2cnc(Nc3ccc(C(=O)NC4CCN(C)CC4)cc3OC)nc2N1C1CCCC1
Procedure, shortened: as §1

[15] = compound: CC[C@@H]1C(=O)N(C)c2cnc(Nc3ccc(C(=O)N[C@H]4CC[C@H](N5CCN(CC6CC6)CC5)CC4)cc3OC)nc2N1C(C)C [volasertib]
Procedure, shortened: as §1

[16] = compound: CCn1c(C(=O)N(C2CC2)C2CC2)cc2c3c(ncn3C)c(Nc3cc(C)n(C)n3)nc21
Procedure, shortened: as §1

[17] = compound: CCn1cc(-c2ccnc3[nH]c(-c4cccc(CN(C)C)c4)cc23)c(-c2ccc(NC(=O)N(C)C)cc2)n1
Procedure, shortened: as §1

[18] = compound: CN1CCC(CNc2ccc3ncc(-c4cccc(OC(F)(F)F)c4)n3n2)CC1
Procedure, shortened: as §1

[19] = compound: CN1CCN(CCOc2cc(OC3CCOCC3)c3c(Nc4c(Cl)ccc5c4OCO5)ncnc3c2)CC1 [saracatinib]
Procedure, shortened: as §1

[20] = compound: CN1CCN(c2nc(C3=C(c4c[nH]c5ccccc45)C(=O)NC3=O)c3ccccc3n2)CC1 [sotrastaurin]
Procedure, shortened: as §1

Measured: log2 fold change

UBE3B (UniProt Q7Z3V4)
inactive: [1] 0.041 | [2] 0.019 | [3] 0.02 | [4] -0.074 | [5] -0.112 | [6] 0.068 | [7] 0 | [8] -0.004 | [9] -0.022 | [10] 0.023 | [11] 0.102 | [12] -0.052 | [13] 0.175 | [14] 0.016 | [15] -0.044 | [16] 0.029 | [17] -0.099 | [18] -0.132 | [19] -0.069 | [20] 0.055

TUT1 (UniProt Q9H6E5)
inactive: [1] 0.017 | [2] 0.002 | [3] 0.006 | [4] -0.029 | [5] -0.001 | [6] 0.036 | [7] 0.028 | [8] -0.057 | [9] 0.007 | [10] 0.006 | [11] 0.004 | [12] 0.056 | [13] 0.06 | [14] -0.017 | [15] -0.062 | [16] 0.035 | [17] -0.077 | [18] -0.041 | [19] 0.005 | [20] 0.016

UBE2G1 (UniProt P62253)
inactive: [1] -0.002 | [2] 0.035 | [3] -0.011 | [4] 0.013 | [5] -0.006 | [6] 0.008 | [7] -0.011 | [8] 0.011 | [9] -0.023 | [10] 0.002 | [11] 0.004 | [12] -0.01 | [13] -0.048 | [14] 0.027 | [15] 0.028 | [16] 0.04 | [17] 0.005 | [18] 0.025 | [19] 0.014 | [20] 0.008

UBE3C (UniProt Q15386)
inactive: [1] -0.011 | [2] 0.024 | [3] 0.012 | [4] -0.028 | [5] -0.011 | [6] 0.005 | [7] 0.04 | [8] -0.021 | [9] 0.021 | [10] 0.01 | [11] -0.001 | [12] 0.006 | [13] 0.016 | [14] -0.021 | [15] -0.073 | [16] 0.086 | [17] -0.075 | [18] 0.002 | [19] 0.04 | [20] 0.03

UBE2F isoform 2 (UniProt Q969M7)
inactive: [1] 0.052 | [2] 0.054 | [3] -0.114 | [4] -0.019 | [5] 0.053 | [6] 0.054 | [7] 0.003 | [8] 0.079 | [9] 0.077 | [10] -0.023 | [11] -0.004 | [12] 0.015 | [13] -0.084 | [14] 0.015 | [15] -0.057 | [16] -0.031 | [17] 0.114 | [18] 0.009 | [19] -0.116 | [20] -0.138

TUSC3 isoform 2 (UniProt Q13454)
inactive: [1] -0.012 | [2] -0.019 | [3] 0.015 | [4] -0.015 | [5] 0.034 | [6] 0.03 | [7] 0.06 | [8] 0.028 | [9] -0.068 | [10] -0.015 | [11] 0.064 | [12] 0.01 | [13] 0.053 | [14] 0.092 | [15] 0.049 | [16] -0.006 | [17] -0.175 | [18] 0.05 | [19] 0.014 | [20] -0.017

TXN (UniProt P10599)
inactive: [1] -0.061 | [2] 0 | [3] -0.029 | [4] 0.007 | [5] -0.014 | [6] -0.038 | [7] -0.002 | [8] -0.008 | [9] -0.007 | [10] -0.015 | [11] -0.032 | [12] -0.015 | [13] -0.002 | [14] 0.082 | [15] 0.007 | [16] -0.008 | [17] 0.113 | [18] -0.007 | [19] -0.051 | [20] 0.005

TXNRD3 (UniProt Q86VQ6)
inactive: [1] 0.099 | [2] -0.083 | [5] -0.062 | [10] -0.214 | [12] 0.163 | [13] 0.279 | [14] 0.087 | [15] -0.217 | [17] -0.013 | [18] -0.045

Fetched one by one from the entries so far (2):
UBE3B (UniProt Q7Z3V4)
inactive: [1] 0.041 | [2] 0.019 | [3] 0.02 | [4] -0.074 | [5] -0.112 | [6] 0.068 | [7] 0 | [8] -0.004 | [9] -0.022 | [10] 0.023 | [11] 0.102 | [12] -0.052 | [13] 0.175 | [14] 0.016 | [15] -0.044 | [16] 0.029 | [17] -0.099 | [18] -0.132 | [19] -0.069 | [20] 0.055

UBE3C (UniProt Q15386)
inactive: [1] -0.011 | [2] 0.024 | [3] 0.012 | [4] -0.028 | [5] -0.011 | [6] 0.005 | [7] 0.04 | [8] -0.021 | [9] 0.021 | [10] 0.01 | [11] -0.001 | [12] 0.006 | [13] 0.016 | [14] -0.021 | [15] -0.073 | [16] 0.086 | [17] -0.075 | [18] 0.002 | [19] 0.04 | [20] 0.03

Later entries.

TUBGCP5 (UniProt Q96RT8)
inactive: [1] 0.036 | [2] 0.363 | [3] 0.038 | [4] 0.026 | [6] 0.009 | [7] 0.001 | [8] -0.007 | [9] -0.049 | [10] -0.118 | [11] -0.023 | [12] -0.351 | [13] -0.057 | [14] -0.204 | [15] 0 | [16] 0.004 | [17] -0.06 | [18] 0.088 | [19] -0.075 | [20] 0.033

UBE2D3 isoform 3 (UniProt P61077)
inactive: [1] 0.033 | [2] 0.014 | [3] -0.026 | [4] -0.041 | [5] -0.013 | [6] -0.016 | [7] -0.029 | [8] 0.068 | [9] -0.005 | [10] -0.028 | [11] 0.035 | [12] 0.011 | [13] -0.047 | [14] 0.004 | [15] 0.015 | [16] -0.094 | [17] 0.039 | [18] 0.051 | [19] 0.039 | [20] -0.013

UBXN2A (UniProt P68543)
inactive: [1] 0.096 | [2] -0.019 | [3] 0.048 | [4] -0.039 | [5] 0.015 | [7] 0.004 | [8] -0.007 | [9] -0.001 | [10] 0.099 | [11] -0.016 | [12] 0.05 | [13] -0.106 | [15] 0.088 | [16] -0.053 | [17] -0.056 | [18] 0.118 | [19] -0.01 | [20] -0.005

UBE2J2 (UniProt Q8N2K1)
inactive: [1] -0.006 | [3] 0.088 | [4] 0.039 | [5] -0.007 | [6] 0.052 | [7] 0.151 | [8] -0.094 | [9] 0.01 | [11] 0.17 | [13] 0.027 | [14] -0.211 | [16] -0.16 | [17] 0.012 | [18] 0.12 | [19] -0.068 | [20] 0.056

TWNK (UniProt Q96RR1)
inactive: [1] 0.014 | [3] -0.12 | [4] -0.337 | [5] -0.015 | [6] 0.057 | [7] -0.145 | [8] 0.166 | [9] -0.058 | [11] 0.014 | [13] 0 | [14] 0.252 | [16] -0.481 | [17] 0.372 | [18] -0.484 | [19] 0.003 | [20] -0.043

TUBB8B (UniProt A6NNZ2)
inactive: [1] -0.078 | [2] -0.043 | [3] 0.039 | [4] -0.205 | [6] 0.046 | [7] 0.078 | [9] -0.04 | [10] -0.106 | [11] -0.089 | [12] 0.127 | [13] -0.179 | [14] -0.023 | [15] -0.067 | [16] 0.036 | [17] -0.012 | [18] 0.016 | [19] -0.01

UBXN10 (UniProt Q96LJ8)
inactive: [1] 0.016 | [2] 0.044 | [3] 0.002 | [4] -0.012 | [5] 0.014 | [7] 0.012 | [8] -0.001 | [9] 0.069 | [10] -0.015 | [11] 0.008 | [12] -0.089 | [13] -0.133 | [14] 0.095 | [15] 0.074 | [16] 0.01 | [17] -0.082 | [18] 0.021 | [19] -0.016 | [20] -0.012

TUSC2 (UniProt O75896)
inactive: [1] -0.023 | [2] -0.124 | [3] -0.094 | [4] 0.147 | [5] -0.086 | [6] 0.01 | [7] -0.024 | [9] -0.296 | [10] -0.021 | [12] 0.1 | [13] -0.163 | [14] -0.275 | [15] 0.007 | [16] -0.046 | [17] -0.036 | [18] 0.061 | [19] 0.002

UBXN2B (UniProt Q14CS0)
inactive: [1] 0.108 | [2] 0.19 | [3] 0.087 | [4] -0.075 | [5] 0.002 | [6] -0.189 | [7] -0.192 | [9] 0.022 | [10] -0.011 | [11] 0.148 | [12] 0.049 | [13] 0.147 | [14] 0.065 | [15] -0.066 | [16] -0.035 | [17] -0.142 | [18] 0.074 | [19] -0.068
